# Data as given in patent US8030300B2, “Ligands for nicotinic acetylcholine receptors, and methods of making and using them” (priority 2003, dated 2011).
# By UniProt entry, the sequences of proteins in these tests, tags left out. Residues count along the entry.
# UniProt P12389, 28-511 limits assumed: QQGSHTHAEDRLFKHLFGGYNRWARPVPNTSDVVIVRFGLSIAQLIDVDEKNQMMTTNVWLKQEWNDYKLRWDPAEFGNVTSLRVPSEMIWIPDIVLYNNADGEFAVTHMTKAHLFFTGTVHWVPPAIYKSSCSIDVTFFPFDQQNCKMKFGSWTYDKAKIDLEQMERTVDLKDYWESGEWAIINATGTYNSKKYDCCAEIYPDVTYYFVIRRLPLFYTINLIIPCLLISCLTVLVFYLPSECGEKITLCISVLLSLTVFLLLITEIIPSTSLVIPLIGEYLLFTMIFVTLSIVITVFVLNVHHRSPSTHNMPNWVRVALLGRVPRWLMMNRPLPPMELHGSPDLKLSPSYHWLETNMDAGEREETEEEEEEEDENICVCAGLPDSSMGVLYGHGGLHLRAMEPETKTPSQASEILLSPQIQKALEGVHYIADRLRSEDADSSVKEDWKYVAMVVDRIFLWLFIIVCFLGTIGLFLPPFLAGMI
# UniProt P12390, 25-500 limits assumed: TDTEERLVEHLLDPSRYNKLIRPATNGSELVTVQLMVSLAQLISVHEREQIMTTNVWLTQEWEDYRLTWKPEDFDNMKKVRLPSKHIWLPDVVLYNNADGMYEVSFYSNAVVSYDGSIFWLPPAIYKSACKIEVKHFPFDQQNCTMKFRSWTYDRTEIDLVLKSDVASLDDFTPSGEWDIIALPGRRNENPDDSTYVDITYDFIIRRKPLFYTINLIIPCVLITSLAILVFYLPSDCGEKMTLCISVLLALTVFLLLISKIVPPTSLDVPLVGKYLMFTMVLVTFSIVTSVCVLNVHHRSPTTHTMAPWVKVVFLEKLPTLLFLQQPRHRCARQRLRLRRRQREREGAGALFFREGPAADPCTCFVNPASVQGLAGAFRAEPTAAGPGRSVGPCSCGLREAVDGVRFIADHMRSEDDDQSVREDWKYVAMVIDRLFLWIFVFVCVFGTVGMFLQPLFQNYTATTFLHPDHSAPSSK
# UniProt P04757, 26-499 limits assumed: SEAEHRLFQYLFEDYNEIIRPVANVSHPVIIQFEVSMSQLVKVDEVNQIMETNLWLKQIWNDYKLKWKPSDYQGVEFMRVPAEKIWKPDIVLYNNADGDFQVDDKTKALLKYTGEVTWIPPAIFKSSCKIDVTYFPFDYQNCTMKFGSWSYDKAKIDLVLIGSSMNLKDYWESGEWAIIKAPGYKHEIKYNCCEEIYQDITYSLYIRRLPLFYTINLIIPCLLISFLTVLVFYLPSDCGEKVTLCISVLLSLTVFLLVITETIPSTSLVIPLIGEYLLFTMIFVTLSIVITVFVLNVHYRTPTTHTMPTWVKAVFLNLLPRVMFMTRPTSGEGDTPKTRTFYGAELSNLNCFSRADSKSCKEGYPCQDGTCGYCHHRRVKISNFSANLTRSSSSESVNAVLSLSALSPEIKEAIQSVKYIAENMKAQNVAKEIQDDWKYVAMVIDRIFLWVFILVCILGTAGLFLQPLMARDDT
# UniProt P09483, 31-630 limits assumed: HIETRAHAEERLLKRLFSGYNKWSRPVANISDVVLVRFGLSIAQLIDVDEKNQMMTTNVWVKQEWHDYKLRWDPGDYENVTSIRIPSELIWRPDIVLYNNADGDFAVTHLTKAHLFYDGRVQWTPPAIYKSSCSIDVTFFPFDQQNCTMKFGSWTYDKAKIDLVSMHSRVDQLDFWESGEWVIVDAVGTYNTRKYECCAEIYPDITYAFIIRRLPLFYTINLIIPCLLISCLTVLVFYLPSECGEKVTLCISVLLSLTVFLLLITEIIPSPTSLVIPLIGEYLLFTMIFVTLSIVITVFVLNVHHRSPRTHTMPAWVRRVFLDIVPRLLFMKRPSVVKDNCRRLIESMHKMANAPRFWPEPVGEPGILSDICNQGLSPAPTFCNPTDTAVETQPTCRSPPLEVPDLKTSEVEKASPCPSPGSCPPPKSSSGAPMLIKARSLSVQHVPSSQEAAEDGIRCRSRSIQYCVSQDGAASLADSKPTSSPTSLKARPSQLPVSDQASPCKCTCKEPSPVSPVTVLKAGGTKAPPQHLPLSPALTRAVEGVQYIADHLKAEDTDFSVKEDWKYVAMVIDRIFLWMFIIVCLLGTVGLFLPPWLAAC
# UniProt P12392, 21-495 limits assumed: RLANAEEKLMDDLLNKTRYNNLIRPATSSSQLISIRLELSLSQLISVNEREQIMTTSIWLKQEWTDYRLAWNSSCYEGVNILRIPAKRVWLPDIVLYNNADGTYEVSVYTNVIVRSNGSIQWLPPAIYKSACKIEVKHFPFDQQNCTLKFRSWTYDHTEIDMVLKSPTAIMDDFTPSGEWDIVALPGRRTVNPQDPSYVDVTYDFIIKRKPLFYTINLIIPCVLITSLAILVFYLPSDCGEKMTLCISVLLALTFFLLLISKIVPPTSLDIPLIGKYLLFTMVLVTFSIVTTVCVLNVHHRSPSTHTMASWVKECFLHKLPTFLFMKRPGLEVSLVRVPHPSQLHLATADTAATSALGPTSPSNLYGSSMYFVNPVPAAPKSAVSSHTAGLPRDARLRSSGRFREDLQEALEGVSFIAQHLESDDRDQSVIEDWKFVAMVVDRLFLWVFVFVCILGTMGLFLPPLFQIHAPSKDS
# Columns and labels:
# α2β2 nAChR subtype = α2β2 nAChR subtype (Rattus norvegicus, UniProt P12389+P12390); details: read-out: Ki α2β2
# α3β2 nAChR subtype = α3β2 nAChR subtype (Rattus norvegicus, UniProt P04757+P12390); details: read-out: Ki α3β2
# α4β4 nAChR subtype = α4β4 nAChR subtype (Rattus norvegicus, UniProt P09483+P12392); details: read-out: Ki α4β4
smiles,measurement,setting,value
"FC1CC2NC1CC2c1ccc(Cl)nc1 (stereo not drawn) [Ligand 10, 2-exo-(2-Chloro-5-pyridyl)-5-exo-fluoro-7-azabicyclo[2.2.1]heptane]",Ki,α2β2 nAChR subtype,0.86 nM
same,Ki,α3β2 nAChR subtype,0.65 nM
same,Ki,α4β4 nAChR subtype,1.22 nM

# The structures given here were assigned with low confidence; some may be wrong.
